Values of other authors as cited in patent US20060165683A1, “Methods and compositions for control of bone formation via modulation of sympathetic tone” (priority 2001, published 2006).

System: ovariectomized rat
Settings: cited from earlier work

In the case of `COc1ccc(CC(C)NCC(O)c2ccc(O)c(NC=O)c2)cc1` (stereo not shown) [formoterol], the effects in bone is listed as “Anabolic effects”.
